One test deals with T1, Flag-TRAF2 (mouse) (UniProt P39429).
T1 sequence: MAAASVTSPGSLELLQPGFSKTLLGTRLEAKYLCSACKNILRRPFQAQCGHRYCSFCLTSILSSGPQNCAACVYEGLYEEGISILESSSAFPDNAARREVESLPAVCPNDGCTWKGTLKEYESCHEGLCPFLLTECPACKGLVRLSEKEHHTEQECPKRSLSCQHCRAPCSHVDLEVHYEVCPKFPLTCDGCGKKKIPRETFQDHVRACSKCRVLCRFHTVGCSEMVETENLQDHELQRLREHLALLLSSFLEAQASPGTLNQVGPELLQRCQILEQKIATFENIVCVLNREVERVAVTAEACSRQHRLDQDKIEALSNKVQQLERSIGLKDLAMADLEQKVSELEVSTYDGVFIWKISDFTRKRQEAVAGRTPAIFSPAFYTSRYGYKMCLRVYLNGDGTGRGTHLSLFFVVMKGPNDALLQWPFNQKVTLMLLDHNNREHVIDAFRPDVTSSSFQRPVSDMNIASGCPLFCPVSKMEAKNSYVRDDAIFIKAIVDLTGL
Briefly: co-IP.

Amino acid sequences for entries named in this document (tags omitted). A change or cut given only in a name is not applied to a line headed by its entry. Residues count along the entry.
UniProt P70191: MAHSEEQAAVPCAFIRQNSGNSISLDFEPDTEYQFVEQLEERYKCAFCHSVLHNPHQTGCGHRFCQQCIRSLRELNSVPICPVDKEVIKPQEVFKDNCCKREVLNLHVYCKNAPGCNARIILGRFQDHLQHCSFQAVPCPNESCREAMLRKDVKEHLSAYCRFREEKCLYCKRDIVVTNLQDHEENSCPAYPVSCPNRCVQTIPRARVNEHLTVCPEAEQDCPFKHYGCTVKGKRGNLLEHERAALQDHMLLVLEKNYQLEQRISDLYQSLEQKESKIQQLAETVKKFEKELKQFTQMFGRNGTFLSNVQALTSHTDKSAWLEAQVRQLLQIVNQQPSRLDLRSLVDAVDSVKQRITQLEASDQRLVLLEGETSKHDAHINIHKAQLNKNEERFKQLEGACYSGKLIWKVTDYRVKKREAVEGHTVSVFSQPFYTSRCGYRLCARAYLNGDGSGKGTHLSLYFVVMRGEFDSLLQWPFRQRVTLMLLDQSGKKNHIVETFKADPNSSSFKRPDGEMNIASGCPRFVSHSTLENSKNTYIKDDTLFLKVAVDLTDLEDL
UniProt Q9Y6K9, residues 86-419: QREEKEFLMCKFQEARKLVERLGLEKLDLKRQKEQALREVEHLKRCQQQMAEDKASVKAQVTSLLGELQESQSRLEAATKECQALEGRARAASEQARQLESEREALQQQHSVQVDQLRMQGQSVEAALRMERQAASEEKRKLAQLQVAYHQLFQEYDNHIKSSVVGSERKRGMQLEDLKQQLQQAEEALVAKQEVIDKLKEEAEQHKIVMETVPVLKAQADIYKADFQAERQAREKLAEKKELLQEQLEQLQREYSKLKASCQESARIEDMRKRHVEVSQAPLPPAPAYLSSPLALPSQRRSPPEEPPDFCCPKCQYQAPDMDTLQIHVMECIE
UniProt Q7Z434: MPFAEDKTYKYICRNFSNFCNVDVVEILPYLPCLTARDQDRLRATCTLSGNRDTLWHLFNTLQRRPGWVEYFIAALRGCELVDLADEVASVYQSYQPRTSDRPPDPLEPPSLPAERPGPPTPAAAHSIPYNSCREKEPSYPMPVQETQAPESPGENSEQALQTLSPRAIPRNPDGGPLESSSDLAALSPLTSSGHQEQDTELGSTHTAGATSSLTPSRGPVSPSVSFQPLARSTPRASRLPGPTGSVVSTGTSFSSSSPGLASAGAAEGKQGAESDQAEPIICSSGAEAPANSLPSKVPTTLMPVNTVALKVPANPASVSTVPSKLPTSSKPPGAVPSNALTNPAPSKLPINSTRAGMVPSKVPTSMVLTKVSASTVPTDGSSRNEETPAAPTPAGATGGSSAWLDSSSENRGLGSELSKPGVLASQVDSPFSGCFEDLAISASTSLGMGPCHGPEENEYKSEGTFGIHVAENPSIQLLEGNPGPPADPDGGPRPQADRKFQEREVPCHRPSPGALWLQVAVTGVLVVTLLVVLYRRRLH

Another test addresses Flag-TRAF5 (mouse) (UniProt P70191). Briefly: co-IP.
The next test concerns the target T2, Flag-TRAF6 (mouse) (UniProt P70196).
T2 sequence: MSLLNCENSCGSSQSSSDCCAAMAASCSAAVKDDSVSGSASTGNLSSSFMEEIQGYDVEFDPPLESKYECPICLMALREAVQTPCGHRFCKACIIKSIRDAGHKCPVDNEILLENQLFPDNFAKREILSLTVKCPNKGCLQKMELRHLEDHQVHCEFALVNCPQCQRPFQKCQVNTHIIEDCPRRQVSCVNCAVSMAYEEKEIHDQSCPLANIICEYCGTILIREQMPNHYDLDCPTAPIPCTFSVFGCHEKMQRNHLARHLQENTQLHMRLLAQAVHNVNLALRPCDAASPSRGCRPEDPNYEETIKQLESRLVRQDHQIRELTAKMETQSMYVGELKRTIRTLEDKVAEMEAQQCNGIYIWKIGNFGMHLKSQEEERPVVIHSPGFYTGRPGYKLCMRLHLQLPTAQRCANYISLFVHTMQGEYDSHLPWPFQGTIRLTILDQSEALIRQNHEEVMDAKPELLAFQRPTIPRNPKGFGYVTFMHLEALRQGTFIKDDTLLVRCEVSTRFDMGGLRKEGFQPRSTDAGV
In words: co-IP.

For test [1], the target named is Flag-NEMOΔN (NEMO without its N-terminal IKK-binding region, 86-419) (human) (UniProt Q9Y6K9). In words: co-IP; 100,000×g supernatants of Nemo−/− MEFs and of MEFs stably expressing Flag-NEMOΔN mixed 5:1; M2 agarose at 4°C overnight; washed with 10 mM Tris-HCl pH 7.5, 1 M NaCl, 0.1% CHAPS; eluted with Flag peptide; immunoblotting. For orientation: Immunoblotting shows a protein as a band on a membrane.

These are yes or no findings as the source states them, for the method shown. In cells and extracts the contact can be indirect. Some results given as binding are weak or reduced against the parent protein; the word gives no strength. For part of these data: Where a sequence is shown, tags or fusion partners need not be part of it.

As for “MAVS WT (human, expressed in MEFs) (from UniProt Q7Z434 1-540)”, the binding entry in the test with Flag-TRAF2 (mouse), in the test with Flag-TRAF5 (mouse) and in the test with Flag-TRAF6 (mouse) was “binds” throughout. Regarding “MAVS Q145N (human, expressed in MEFs) (from UniProt Q7Z434 1-540)”, the binding entry with Flag-TRAF6 (mouse) is on record as “binds”. In the case of “MAVS 2ED (E155D/E457D; human, expressed in MEFs) (from UniProt Q7Z434 1-540)”, the binding result with Flag-TRAF2 (mouse) is given as “binds”.

B1: TANK (protein, UniProt P70347 1-448)
chain: MSLKRHSLRRNACHLETRAGIPTILYSDATGQRGMDKNIGEQLNRAYEAFRQACMDRDSAVRELQQKQTENYEQRIREQQEQLSFQQNLIDRLKSQLLLVDSSRDNSYGYVPLLEDSDRRKNNLTLDEPHDKVKLGTLRDKQSKVRRQEVSSGKESAKGLNIPLHHERDNIEKTFWDLKEEFHRICLLAKAQKDHLSKLNIPDIATDTQCSVPIQCTDKTEKQEALFKPQAKDDINRGMSCVTAVTPRGLGRDEEDTSFESLSKFNVKFPPMDNDSIFLHSTPEAPSILAPATPETVCQDRFNMEVRDNPGNFVKTEETLFEIQGIDPITSAIQNLKTTDKTNPSNLRATCLPAGDHNVFYVNTFPLQDPPDAPFPSLDSPGKAVRGPQQPFWKPFLNQDTDLVVPSDSDSELLKPLVCEFCQELFPPSITSRGDFLRHLNTHFNGET
Turning to B1, the binding result in test [1] is given as “binds”.

The values above are taken from PMC3743401.
